From article PMC6457190 (MedChemComm, 2019)

Assay: general procedure: Fmoc solid-phase peptide synthesis; HATU (manual SPPS)
Conditions: whole synthesis, overall

Substance | isolated yield [%]
Oct-TriA2(2,8-D-Lys, 7-Lys) | 4
Oct-TriA1(2,8-D-Lys, 7-Lys) | 6
Oct-TriA2(2,8-D-Orn, 7-Orn) | 4
Oct-TriA1(2-D-Lys, 7-Lys) | 5
Oct-TriA1(2-D-Orn, 7-Orn) | 6
Oct-TriA1(2,8-D-Orn, 7-Orn) | 6
Oct-TriA1 | 11
Oct-TriA2 | 5
